Test results: patent US11426402B2, “IRE1 activating compounds for use in therapy” (The Scripps Research Institute, priority 2019, dated 2022)
Some entries share one result that the patent states for a list of compounds. Some ranges recur; such a range may be that of the whole group of compounds.

Test system: IRE1/XBP1s geneset
Test: RNAseq geneset analysis in HEK293T cells, IRE1/XBP1s geneset
Type: cell-based, human
Conditions: 6 h

Structure (SMILES)	activation of IRE1/XBP1s geneset relative to Tg
Cc1ccc(OCCN(C)C(=O)Cn2cc(NC(=O)CCOc3ccccc3)cn2)cc1 [Compound 474]	30-40%
O=C(CN(Cc1ccc(Cl)cc1)S(=O)(=O)c1cccnc1)N1CCc2ccccc21 [Compound 970]	30-40%
CCOC(CNC(=O)C1CCCN(Cc2nc(-c3ccc(Cl)cc3)oc2C)C1)OCC (stereo not drawn) [Compound 198]	30-40%
